Out of some 360,000 compounds screened, about 7,500 (2.1%) were called active. Inconclusive results, whose numbers are uncertain, are shown with a selection of clear calls. The call rests on the fitted dose curve; in most records, active means well fitted inhibition curve with a large enough effect; inconclusive means small, poorly fitted or top-dose-only effect, or effect the other way; inactive means flat fitted curve, though single readings scatter. Potencies of inconclusive entries are doubtful fits and often do not repeat.
experiment: Nrf2 qHTS screen for inhibitors; settings: A549 ARE-Fluc reporter, luciferase luminescence, 18-24 h; activity change, negative = inhibition: at 46 µM (top of the series); further: nearly all actives have a fitted effect of over 60% in size
Method in brief: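 Concentration-response testing used A549 ARE_Fluc cells at 5000 cells/well. Following an 18-24 h compound incubation, viability was read by fluorescence (Ex 405/Em 525) and luciferase output by luminescence.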
On the % scale 0 is the no-effect control and ±100 the full control effect; potency means the concentration at half of the fitted maximal effect.

Structure (SMILES)	Potency	activity change, negative = inhibition
CC(C)(CNC(=O)c1sc2cc(F)ccc2c1Cl)N1CCOCC1	inconclusive: 20.6 µM [falling, partial curve, poor fit]	–
CNC(=O)c1cccc(NC(=O)c2cc(-c3ccccc3)nc3c2cnn3C(C)C)c1	active: 20.6 µM	–
COc1ccc(S(=O)(=O)N2CCN(c3ccccn3)CC2)c(OC)c1	inconclusive: 13 µM [falling, partial curve]	–
CC[n+]1cccc(-c2nc3ccccc3s2)c1	inconclusive: 13 µM [falling, partial curve, poor fit]	–
COc1cccc(CNC(=O)CN(c2ccc(C(C)C)cc2)S(=O)(=O)c2c(C)n[nH]c2C)c1	inconclusive: 16.4 µM [falling, partial curve, poor fit]	–
Cn1c(=O)c(=O)n(C)c2cc(N3CCCC3)c(NC(=O)c3ccc(C(C)(C)C)cc3)cc21	inactive	–
Cc1ccc(OCc2nnc(SCc3ccc(C#N)cc3)n2-c2ccc(C)cc2)cc1	active: 18.4 µM	–
CCOc1ccc(S(=O)(=O)n2cnc3cc(C)c(C)cc32)cc1	inconclusive: 5.8 µM [falling, full curve, poor fit]	–
COc1ccc(S(=O)(=O)N2CCN(C(=O)COc3ccc4c(C)cc(=O)oc4c3)CC2)cc1	inactive	–
N#Cc1ccccc1Oc1ccccc1C=O	inactive	–
COc1ccc(C)cc1NC(=O)C1CCCN(S(=O)(=O)c2ccc3c(c2)oc(=O)n3C)C1 (configuration not stated)	inconclusive: 11.6 µM [falling, partial curve, poor fit]	–
CCOC(=O)c1c(N2C(=O)Nc3cc(Cl)c(Cl)cc3N2O)sc2c1CCCCC2	inconclusive: 23.1 µM [falling, single point]	–
CCCn1c(NC(=O)c2ccc(Cl)c(S(=O)(=O)N3CCCC3)c2)nc2ccccc21	inconclusive: 4.61 µM [falling, partial curve, poor fit]	–
CC(NC(=S)NC1CCC(C(C)(C)C)CC1)c1ccccc1 (configuration not stated)	inconclusive: 29.1 µM [falling, single point]	–
Cc1cccc(Cn2c(SCc3ccc(C(=O)NCCc4ccccc4)cc3)nc3cccnc32)c1	inconclusive: 32.6 µM [falling, single point]	–
O=C(Nn1cc(C(=O)Nc2ccccc2F)c2ccccc2c1=O)c1cnccn1	inconclusive: 23.1 µM [falling, single point]	–
COc1ccc(CNC(=O)c2ccc3c(c2)NC(=O)C(CS(=O)(=O)Cc2ccccc2Cl)N3)cc1 (configuration not stated)	inconclusive: 16.4 µM [activator, partial curve, poor fit]	–
COc1cc(Cl)c(C)cc1Nc1c2c(nc3ccccc13)CCC2	–	inactive: 4.33% [at 9.27 µM]
Cc1nc(N2CCN(c3ccccn3)CC2)c2c(C)c(C(=O)Nc3c(F)cc(F)cc3Br)sc2n1	inconclusive: 6.51 µM [falling, partial curve]	–
Cc1occc1C(=O)Nc1c(F)c(F)c(F)c(F)c1F	inconclusive: 16.4 µM [activator, partial curve]	–
CCc1cccc(CC)c1NC(=O)c1c(C)oc2ccc(O)c(CN3CCOCC3)c12	inactive	–
CCOC(=O)c1cccc(NS(=O)(=O)c2c(C)nc3sc(C)cn3c2=O)c1	inconclusive: 23.1 µM [falling, single point]	–
O=C(CCSCCC(=O)NCc1ccco1)NCc1ccco1	inconclusive: 18.4 µM [activator, partial curve, poor fit]	–

Structure (SMILES)	Potency	activity change, negative = inhibition
COc1ccc(S(=O)(=O)N(CCc2ccccc2)CC(=O)Nc2cc(C)ccc2C)cc1	inconclusive: 16.4 µM [falling, single point]	–
O=C(CN1C(=O)/C(=C/c2ccccc2F)Sc2ccccc21)NCc1cccnc1	inconclusive: 25.9 µM [falling, single point]	–
CCCSc1cc(NCCOC(C)=O)c([N+](=O)[O-])c2nonc12	inactive	–
CCCC(=O)N/C(N)=N/c1nc2ccccc2o1	inconclusive: 5.8 µM [activator, partial curve]	–
COc1ccc(Cl)cc1Nc1nc(-c2sc(NC(=O)C(C)(C)C)nc2C)cs1	active: 4.11 µM	–
CC(=O)c1ccc(OCc2ccccc2)c(C)c1O	inconclusive: 9.2 µM [activator, partial curve]	–
Cc1cccc(NC(=O)c2oc3ccc(S(=O)(=O)N4CCOCC4)cc3c2C)c1C	inconclusive: 20.6 µM [falling, partial curve, poor fit]	–
CCOC(=O)C1(Cc2ccccc2C)CCCN(C(=O)CCn2nccc2C)C1 (configuration not stated)	inactive	–
COc1cc(OC)cc(C(=O)Nc2ccc3oc(-c4ccc(Cl)cc4)nc3c2)c1	inactive	–
Cc1cccc(Nc2ccc(C(=O)O)cc2[N+](=O)[O-])c1C	inconclusive: 32.6 µM [falling, single point]	–
O=C(C1=C[C@@H](c2ccc(Br)cc2)C[C@@H](OCCCCO)O1)N1CCN(Cc2ccccc2)CC1	inconclusive: 29.1 µM [falling, single point]	–
CC1CC(Nc2ccccc2N)=CC(=O)O1 (configuration not stated)	inactive	–
CC(C)(C)c1ccc(SCCc2ccncc2)cc1	inconclusive: 20.6 µM [falling, single point]	–
COc1ccc(C(=O)CCN2CCN(c3ccccc3F)CC2)cc1	inactive	–
CCOC(=O)C1=C(c2ccccc2)Nc2ncnn2C1c1ccc(Cl)cc1 (configuration not stated)	inactive	–
CC(C)Oc1cccc(C(=O)Nc2ccc(-c3nc4cc(Cl)cc(Cl)c4o3)cc2)c1	inconclusive: 4.11 µM [falling, partial curve]	–
C=CCN(c1ccccc1)S(=O)(=O)c1cccc(C(=O)NC2CCN(Cc3ccccc3)CC2)c1	inconclusive: 7.31 µM [falling, partial curve]	–
Cc1nnc(SCc2ccccc2Cl)c2cc3occc3n12	inconclusive: 4.61 µM [activator, full curve, poor fit]	–
CCN(CC)c1ccc(/C=N/NC(=O)Cc2cccs2)c(O)c1	inconclusive: 20.6 µM [falling, single point]	–
Cc1cccc(OCC(=O)NNc2c3ccccc3nc3ccccc23)c1	inconclusive: 29.1 µM [falling, single point]	–
CN(C(=O)Cc1c[nH]c2ccccc12)C(C(=O)Nc1ccc2c(c1)OCO2)c1ccccc1 (configuration not stated)	active: 23.1 µM	–
Oc1c(CN2CCN(c3ccccc3)CC2)cc(Br)c2cccnc12	inactive	–
Cn1cccc1Cc1nnc(SCC(=O)Nc2ccc(F)cc2)n1CCc1ccccc1	inconclusive: 29.1 µM [activator, single point]	–

Structure (SMILES)	Potency	activity change, negative = inhibition
O=C(Nc1cc(-c2nc3ccccc3s2)ccc1Cl)c1ccc2c(c1)OCO2	inconclusive: 6.51 µM [activator, full curve]	–
CCCCNS(=O)(=O)c1ccc2nc(SCC(=O)Nc3sccc3C#N)[nH]c2c1	inconclusive: 29.1 µM [falling, single point]	–
COc1ccc2c(CNCc3cccs3)c(C(=O)O)n(Cc3ccc(F)cc3Cl)c2c1	inactive	–
COc1ccccc1C1=NOC(Cn2c(NCC3CCCO3)nc3c2c(=O)n(C)c(=O)n3C)C1 (configuration not stated)	inconclusive: 5.17 µM [falling, partial curve, poor fit]	–
CCOc1ccccc1N(C)C(=O)Cn1cnc2onc(-c3ccc(F)cc3)c2c1=O	inactive	–
CC(=O)N1c2ccccc2C2(C)C(C1(C)C)C2(Cl)Cl (configuration not stated)	inconclusive: 1.46 µM [falling, partial curve, poor fit]	–
O=[S+]([O-])(c1cc2ccccc2o1)N1CCN([S+](=O)([O-])c2c(F)cccc2F)CC1	inactive	–
O=C(Nc1ccc(F)cc1)C1CC2CCC1C2 (configuration not stated)	inconclusive: 1.16 µM [activator, partial curve, poor fit]	–
CC(C)C(C)NC(=O)COc1ccc(-c2ccccc2)cc1 (configuration not stated)	inconclusive: 1.16 µM [activator, full curve, poor fit]	–
Cc1cc(=O)n2c(C(=O)Nc3ccc(F)c(Cl)c3)c(C(=O)Nc3cccc(C)c3C)sc2n1	inactive	–
Cc1ccccc1C1C(C#N)=C2N=C(N)c3c(sc4c3CCCCC4)N2C2=C1C(=O)CC(C)(C)C2 (configuration not stated)	inconclusive: 23.1 µM [falling, single point]	–
CC1=NN(c2ccc(C)cc2)C(=O)/C1=C\C=C\c1ccccc1	inactive	–
Cc1nnc(SCC(=O)NCc2ccc(N(C)C)cc2)c2nn(-c3ccccc3)c(C)c12	inactive	–
O=C(Nc1ccc2nn(-c3ccccc3)nc2c1)c1ccc2c(c1)OCO2	inconclusive: 14.6 µM [falling, partial curve, poor fit]	–
CN(CC(=O)O)Cc1nc2ccccc2[nH]1	inconclusive: 16.4 µM [activator, partial curve]	–
CCCCNC(=O)CNC(=S)N(Cc1ccccc1F)C1CCCCC1	inconclusive: 16.4 µM [falling, single point]	–
O=C(c1ccc(Cl)c(S(=O)(=O)N2CCOCC2)c1)N(c1ccccn1)C1CCCCC1	inconclusive: 25.9 µM [falling, single point]	–
CCCCCCOc1ccc(OCC(O)CN2C(=O)NC(C)(C)C2=O)cc1 (configuration not stated)	inconclusive: 7.31 µM [activator, partial curve, poor fit]	–
c1ccc2c(c1)ncn2Cc1nnc2sc(-c3ccc4c(c3)OCO4)nn12	inactive	–
O=C(NCc1ccccc1)c1cc2ccccc2o1	inconclusive: 4.61 µM [activator, full curve]	–
COc1cc(CN2CCN(S(=O)(=O)c3ccc(NC(C)=O)cc3)CC2)cc(OC)c1O	inconclusive: 1.46 µM [falling, full curve, poor fit]	–

5 compounds picked at random from those above:
Structure (SMILES)	Potency	activity change, negative = inhibition
O=C(C1=C[C@@H](c2ccc(Br)cc2)C[C@@H](OCCCCO)O1)N1CCN(Cc2ccccc2)CC1	inconclusive: 29.1 µM [falling, single point]	–
COc1cc(OC)cc(C(=O)Nc2ccc3oc(-c4ccc(Cl)cc4)nc3c2)c1	inactive	–
COc1ccc(Cl)cc1Nc1nc(-c2sc(NC(=O)C(C)(C)C)nc2C)cs1	active: 4.11 µM	–
CCc1cccc(CC)c1NC(=O)c1c(C)oc2ccc(O)c(CN3CCOCC3)c12	inactive	–
CC(=O)c1ccc(OCc2ccccc2)c(C)c1O	inconclusive: 9.2 µM [activator, partial curve]	–

Reference: PubChem BioAssay AID504444 (National Center for Advancing Translational Sciences (NCATS), 2011)
